Results from the supplement of paper PMC11732987, “Enantioselective OTUD7B fragment discovery through chemoproteomics screening and high-throughput optimisation” (Communications Chemistry, 2025).
The list shows a part of the results. The data scatter; read single values as rough.

By UniProt entry, the sequences of proteins in these tests, tags left out. Where a name states a change or a piece, a line headed by the entry shows the natural chain unless it says otherwise. Residues count along the entry.
UniProt Q9Y289, 610-635: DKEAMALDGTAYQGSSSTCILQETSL
UniProt Q8IY92: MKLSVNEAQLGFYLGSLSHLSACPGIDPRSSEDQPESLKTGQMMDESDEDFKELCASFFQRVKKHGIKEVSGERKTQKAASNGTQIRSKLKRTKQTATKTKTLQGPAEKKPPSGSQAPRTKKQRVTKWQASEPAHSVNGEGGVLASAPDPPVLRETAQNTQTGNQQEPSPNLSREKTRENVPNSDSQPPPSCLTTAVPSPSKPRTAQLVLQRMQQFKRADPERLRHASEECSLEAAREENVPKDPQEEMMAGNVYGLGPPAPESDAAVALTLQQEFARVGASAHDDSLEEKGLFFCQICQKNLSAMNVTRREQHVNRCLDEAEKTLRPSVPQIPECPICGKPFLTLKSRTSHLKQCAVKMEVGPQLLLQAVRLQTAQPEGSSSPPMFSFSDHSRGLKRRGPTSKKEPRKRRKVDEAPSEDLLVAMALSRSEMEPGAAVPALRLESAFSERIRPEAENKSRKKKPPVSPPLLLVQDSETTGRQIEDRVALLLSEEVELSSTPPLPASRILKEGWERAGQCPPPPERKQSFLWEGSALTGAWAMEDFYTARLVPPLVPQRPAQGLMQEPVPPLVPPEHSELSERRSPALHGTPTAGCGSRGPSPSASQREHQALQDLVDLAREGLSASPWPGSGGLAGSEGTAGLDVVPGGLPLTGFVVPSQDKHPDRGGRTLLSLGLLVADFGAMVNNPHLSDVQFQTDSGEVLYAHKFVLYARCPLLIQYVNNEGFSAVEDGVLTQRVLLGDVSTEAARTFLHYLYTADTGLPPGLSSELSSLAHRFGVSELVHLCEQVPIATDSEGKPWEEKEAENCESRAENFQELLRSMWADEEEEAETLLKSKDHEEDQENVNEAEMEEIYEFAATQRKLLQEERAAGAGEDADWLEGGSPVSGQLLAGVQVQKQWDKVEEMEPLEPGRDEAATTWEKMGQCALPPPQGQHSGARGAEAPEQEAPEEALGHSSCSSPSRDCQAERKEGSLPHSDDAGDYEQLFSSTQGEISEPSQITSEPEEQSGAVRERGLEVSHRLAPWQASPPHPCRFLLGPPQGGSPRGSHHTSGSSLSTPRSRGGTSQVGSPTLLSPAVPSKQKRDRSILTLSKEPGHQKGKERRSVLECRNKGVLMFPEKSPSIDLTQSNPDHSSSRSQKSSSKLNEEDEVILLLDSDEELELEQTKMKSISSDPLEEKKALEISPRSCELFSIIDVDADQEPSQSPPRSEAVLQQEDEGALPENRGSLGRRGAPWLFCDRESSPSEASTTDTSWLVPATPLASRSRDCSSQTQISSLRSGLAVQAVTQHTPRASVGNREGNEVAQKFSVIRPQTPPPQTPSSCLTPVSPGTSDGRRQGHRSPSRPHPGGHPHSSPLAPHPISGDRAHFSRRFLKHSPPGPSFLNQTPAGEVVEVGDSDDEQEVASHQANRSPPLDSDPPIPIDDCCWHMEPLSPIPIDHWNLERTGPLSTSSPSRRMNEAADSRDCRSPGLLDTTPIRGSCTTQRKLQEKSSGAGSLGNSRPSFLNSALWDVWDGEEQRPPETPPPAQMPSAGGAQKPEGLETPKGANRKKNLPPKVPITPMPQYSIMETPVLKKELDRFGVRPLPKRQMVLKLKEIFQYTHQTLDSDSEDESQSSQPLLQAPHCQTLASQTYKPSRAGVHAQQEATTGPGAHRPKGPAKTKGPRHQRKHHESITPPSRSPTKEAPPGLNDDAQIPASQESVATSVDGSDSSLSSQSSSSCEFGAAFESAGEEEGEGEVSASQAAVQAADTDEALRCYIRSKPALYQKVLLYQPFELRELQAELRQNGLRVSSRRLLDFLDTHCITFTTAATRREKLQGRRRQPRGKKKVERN
UniProt Q9Y5X3: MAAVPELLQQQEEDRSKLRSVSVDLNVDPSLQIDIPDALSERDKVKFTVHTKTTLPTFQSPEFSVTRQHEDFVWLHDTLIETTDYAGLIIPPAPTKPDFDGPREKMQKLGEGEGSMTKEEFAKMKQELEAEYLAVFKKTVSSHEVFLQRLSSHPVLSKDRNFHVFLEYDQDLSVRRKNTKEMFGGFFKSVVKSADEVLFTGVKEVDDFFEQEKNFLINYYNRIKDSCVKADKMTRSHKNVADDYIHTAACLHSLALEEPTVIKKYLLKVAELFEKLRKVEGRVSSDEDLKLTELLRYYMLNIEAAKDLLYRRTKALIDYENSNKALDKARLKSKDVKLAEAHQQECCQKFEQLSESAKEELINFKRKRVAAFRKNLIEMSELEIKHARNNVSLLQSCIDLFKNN
UniProt Q6P1M0: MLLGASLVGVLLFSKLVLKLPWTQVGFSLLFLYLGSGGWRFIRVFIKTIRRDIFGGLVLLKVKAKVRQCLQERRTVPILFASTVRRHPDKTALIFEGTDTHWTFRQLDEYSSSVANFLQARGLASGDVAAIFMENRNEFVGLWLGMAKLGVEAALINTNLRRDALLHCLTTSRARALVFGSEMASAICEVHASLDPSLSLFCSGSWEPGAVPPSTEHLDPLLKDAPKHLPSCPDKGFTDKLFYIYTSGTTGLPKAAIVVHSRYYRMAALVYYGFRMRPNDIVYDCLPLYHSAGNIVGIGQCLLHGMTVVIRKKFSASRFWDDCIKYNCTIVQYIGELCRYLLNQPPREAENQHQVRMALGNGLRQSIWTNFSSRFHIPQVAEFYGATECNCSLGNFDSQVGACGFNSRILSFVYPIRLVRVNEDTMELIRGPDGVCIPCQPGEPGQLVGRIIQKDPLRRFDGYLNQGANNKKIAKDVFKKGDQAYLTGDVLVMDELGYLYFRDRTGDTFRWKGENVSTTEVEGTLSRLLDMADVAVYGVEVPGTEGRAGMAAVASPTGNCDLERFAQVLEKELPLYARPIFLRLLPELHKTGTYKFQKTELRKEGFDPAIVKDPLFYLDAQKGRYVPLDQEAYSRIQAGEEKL
UniProt Q14683, 976-1000: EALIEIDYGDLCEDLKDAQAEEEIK
UniProt Q13596, whole entry, looked up: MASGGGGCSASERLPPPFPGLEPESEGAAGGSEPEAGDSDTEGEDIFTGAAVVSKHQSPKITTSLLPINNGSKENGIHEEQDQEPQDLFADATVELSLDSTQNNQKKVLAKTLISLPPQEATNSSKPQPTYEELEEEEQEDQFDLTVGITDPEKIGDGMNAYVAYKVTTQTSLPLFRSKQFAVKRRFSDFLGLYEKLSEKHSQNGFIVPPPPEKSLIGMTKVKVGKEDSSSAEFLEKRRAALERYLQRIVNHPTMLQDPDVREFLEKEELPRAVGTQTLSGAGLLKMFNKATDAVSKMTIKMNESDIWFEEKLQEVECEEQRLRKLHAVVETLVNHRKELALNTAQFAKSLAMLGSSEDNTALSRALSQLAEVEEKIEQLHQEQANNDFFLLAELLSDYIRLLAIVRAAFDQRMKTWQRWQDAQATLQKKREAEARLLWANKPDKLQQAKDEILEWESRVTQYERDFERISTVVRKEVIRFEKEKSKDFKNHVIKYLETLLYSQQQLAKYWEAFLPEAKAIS
UniProt O15198: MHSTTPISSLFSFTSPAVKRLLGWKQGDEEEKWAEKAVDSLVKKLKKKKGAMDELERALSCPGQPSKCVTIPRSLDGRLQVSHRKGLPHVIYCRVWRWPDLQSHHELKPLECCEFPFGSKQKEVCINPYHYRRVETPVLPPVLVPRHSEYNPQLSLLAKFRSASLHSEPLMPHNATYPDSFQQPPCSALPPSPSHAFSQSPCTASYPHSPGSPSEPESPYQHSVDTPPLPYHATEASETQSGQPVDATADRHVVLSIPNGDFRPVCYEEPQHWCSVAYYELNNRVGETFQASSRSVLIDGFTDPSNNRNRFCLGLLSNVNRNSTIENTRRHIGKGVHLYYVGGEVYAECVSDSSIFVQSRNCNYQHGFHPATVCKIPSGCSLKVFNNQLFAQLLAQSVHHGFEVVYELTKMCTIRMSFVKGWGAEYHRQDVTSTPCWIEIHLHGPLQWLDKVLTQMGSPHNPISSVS
UniProt O15431: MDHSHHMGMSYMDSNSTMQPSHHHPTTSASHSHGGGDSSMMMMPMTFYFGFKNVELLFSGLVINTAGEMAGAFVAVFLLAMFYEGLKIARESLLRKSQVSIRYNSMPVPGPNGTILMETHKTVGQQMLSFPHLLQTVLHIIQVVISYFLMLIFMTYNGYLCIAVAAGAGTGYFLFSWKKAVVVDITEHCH
UniProt Q9H0W8: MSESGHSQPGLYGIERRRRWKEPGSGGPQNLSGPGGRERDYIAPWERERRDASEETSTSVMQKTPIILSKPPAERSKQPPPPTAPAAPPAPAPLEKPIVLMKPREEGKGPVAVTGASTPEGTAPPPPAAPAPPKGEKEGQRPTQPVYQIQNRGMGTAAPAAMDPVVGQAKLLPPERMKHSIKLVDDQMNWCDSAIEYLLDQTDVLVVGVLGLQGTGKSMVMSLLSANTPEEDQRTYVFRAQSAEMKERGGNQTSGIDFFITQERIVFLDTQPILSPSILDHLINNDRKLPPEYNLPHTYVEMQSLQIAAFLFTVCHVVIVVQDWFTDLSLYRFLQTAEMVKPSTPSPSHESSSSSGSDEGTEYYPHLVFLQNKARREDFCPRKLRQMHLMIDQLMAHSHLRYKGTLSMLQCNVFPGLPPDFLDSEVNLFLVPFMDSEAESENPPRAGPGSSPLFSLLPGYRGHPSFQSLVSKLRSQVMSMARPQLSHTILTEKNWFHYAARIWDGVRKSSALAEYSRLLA
UniProt P41440: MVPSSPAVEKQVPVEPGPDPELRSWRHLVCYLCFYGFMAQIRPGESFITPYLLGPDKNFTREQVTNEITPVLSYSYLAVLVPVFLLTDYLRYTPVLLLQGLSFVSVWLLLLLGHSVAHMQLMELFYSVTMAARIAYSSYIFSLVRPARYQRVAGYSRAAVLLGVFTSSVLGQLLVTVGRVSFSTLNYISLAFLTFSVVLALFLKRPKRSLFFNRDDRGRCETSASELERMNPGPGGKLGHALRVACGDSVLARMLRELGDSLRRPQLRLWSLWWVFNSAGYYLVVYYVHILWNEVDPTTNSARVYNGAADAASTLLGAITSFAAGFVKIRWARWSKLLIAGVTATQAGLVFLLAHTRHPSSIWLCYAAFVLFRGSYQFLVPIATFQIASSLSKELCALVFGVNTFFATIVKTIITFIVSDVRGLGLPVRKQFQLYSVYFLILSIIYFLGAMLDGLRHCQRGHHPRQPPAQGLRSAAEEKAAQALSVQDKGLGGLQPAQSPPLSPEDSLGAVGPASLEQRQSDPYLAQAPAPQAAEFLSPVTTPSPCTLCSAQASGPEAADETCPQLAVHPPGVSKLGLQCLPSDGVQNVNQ
UniProt Q9UMY4: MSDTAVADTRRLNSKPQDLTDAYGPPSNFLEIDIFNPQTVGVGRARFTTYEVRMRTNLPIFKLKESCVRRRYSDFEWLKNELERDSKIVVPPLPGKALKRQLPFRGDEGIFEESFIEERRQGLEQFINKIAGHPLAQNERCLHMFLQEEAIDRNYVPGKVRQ
UniProt Q9UPR3: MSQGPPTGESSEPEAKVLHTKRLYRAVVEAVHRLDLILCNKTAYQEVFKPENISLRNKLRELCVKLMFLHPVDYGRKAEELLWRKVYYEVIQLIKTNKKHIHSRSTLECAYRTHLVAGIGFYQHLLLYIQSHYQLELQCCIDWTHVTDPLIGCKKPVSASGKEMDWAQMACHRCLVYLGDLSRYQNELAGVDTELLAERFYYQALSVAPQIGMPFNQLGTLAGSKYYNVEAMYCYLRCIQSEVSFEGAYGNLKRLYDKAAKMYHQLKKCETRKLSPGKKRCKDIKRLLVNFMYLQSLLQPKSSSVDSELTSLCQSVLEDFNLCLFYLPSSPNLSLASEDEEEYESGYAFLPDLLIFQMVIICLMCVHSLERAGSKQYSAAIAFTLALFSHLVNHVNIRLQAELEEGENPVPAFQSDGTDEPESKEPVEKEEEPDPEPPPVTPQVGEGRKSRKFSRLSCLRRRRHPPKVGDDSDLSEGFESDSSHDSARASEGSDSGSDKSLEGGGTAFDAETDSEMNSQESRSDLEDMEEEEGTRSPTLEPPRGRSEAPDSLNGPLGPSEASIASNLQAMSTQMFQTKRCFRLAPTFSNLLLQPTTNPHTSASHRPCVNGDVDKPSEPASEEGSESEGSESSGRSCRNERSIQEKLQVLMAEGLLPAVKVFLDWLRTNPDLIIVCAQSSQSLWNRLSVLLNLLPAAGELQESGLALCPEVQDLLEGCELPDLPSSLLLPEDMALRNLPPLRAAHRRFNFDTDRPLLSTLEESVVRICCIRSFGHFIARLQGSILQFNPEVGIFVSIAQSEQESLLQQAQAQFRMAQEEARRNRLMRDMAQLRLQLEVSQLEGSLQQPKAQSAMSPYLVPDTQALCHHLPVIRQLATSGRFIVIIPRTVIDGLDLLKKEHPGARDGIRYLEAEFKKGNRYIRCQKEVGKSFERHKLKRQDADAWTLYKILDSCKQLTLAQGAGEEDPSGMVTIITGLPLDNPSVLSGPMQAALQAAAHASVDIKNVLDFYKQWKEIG

Columns and labels:
[1] = compound: ClCC(=O)N[C@@H]1CCCc2ccccc12; test: log2 mean competition ratio of IA-DTB cysteine labelling (DMSO/compound) (log2 ratio); higher = stronger cysteine engagement by compound; settings: treatment time: 4 h, cell line lysate: HEK293T
Description: (§1)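 IA-DTB competitive cysteine chemoproteomics in HEK293T RIPA lysate. Lysates were treated with compound 29 or 30 at 50 or 200 µM for 4 h, then IA-DTB (500 µM, 1 h), trypsin-digested, NeutrAvidin-enriched and analysed by diaPASEF. Competition ratio = intensity DMSO / intensity compound (n=4 treated, n=64 DMSO); binding: mean log2 CR ≥ 1 and p ≤ 0.05 plus QC filters. Target is the cysteine site.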

[2] = compound: ClCC(=O)N[C@H]1CCCc2ccccc12; test: as above; settings: treatment time: 4 h, cell line lysate: HEK293T
Description: as §1

Target: SLC5A6 C628 (UniProt Q9Y289)
- log2 mean competition ratio ([1]; 50 µM): -0.149
- log2 mean competition ratio ([1]; 200 µM): 0.1
- log2 mean competition ratio ([2]; 50 µM): 0.407
- log2 mean competition ratio ([2]; 200 µM): -0.0651

Target: SMC5 C308 (UniProt Q8IY18)
- log2 mean competition ratio ([1]; 50 µM): 0.04
- log2 mean competition ratio ([1]; 200 µM): -0.376
- log2 mean competition ratio ([2]; 50 µM): -0.0388
- log2 mean competition ratio ([2]; 200 µM): -0.0485

Target: SMARCC1 C845 (UniProt Q92922)
- log2 mean competition ratio ([1]; 50 µM): -0.323
- log2 mean competition ratio ([1]; 200 µM): 0.352
- log2 mean competition ratio ([2]; 50 µM): -0.218
- log2 mean competition ratio ([2]; 200 µM): 0.412

Target: SLX4 C519 (UniProt Q8IY92)
- log2 mean competition ratio ([1]; 50 µM): 0.00685
- log2 mean competition ratio ([1]; 200 µM): -0.0556
- log2 mean competition ratio ([2]; 50 µM): -0.156
- log2 mean competition ratio ([2]; 200 µM): -0.131

Target: SMURF2 C151
- log2 mean competition ratio ([1]; 50 µM): 0.397
- log2 mean competition ratio ([1]; 200 µM): 0.301
- log2 mean competition ratio ([2]; 50 µM): 0.22
- log2 mean competition ratio ([2]; 200 µM): 0.414

Target: SMC4 C110
- log2 mean competition ratio ([1]; 50 µM): 0.0112
- log2 mean competition ratio ([1]; 200 µM): -0.086
- log2 mean competition ratio ([2]; 50 µM): 0.0219
- log2 mean competition ratio ([2]; 200 µM): 0.107

Target: SNX5 C227 (UniProt Q9Y5X3)
- log2 mean competition ratio ([1]; 50 µM): 0.0126
- log2 mean competition ratio ([1]; 200 µM): -0.0848
- log2 mean competition ratio ([2]; 50 µM): 0.062
- log2 mean competition ratio ([2]; 200 µM): -0.00993

Target: SLC27A4 C560 (UniProt Q6P1M0)
- log2 mean competition ratio ([1]; 50 µM): 0.115
- log2 mean competition ratio ([1]; 200 µM): -0.0125
- log2 mean competition ratio ([2]; 50 µM): 0.43
- log2 mean competition ratio ([2]; 200 µM): 0.0497

Target: SMC1A C987 (UniProt Q14683)
- log2 mean competition ratio ([1]; 50 µM): -0.043
- log2 mean competition ratio ([1]; 200 µM): 0.0322
- log2 mean competition ratio ([2]; 50 µM): 0.162
- log2 mean competition ratio ([2]; 200 µM): -0.234

Target: SORT1 C651 (UniProt Q99523)
- log2 mean competition ratio ([1]; 50 µM): -0.252
- log2 mean competition ratio ([1]; 200 µM): 0.322
- log2 mean competition ratio ([2]; 50 µM): -0.195
- log2 mean competition ratio ([2]; 200 µM): 0.338

Target: SMAD2 C380 (UniProt Q15796)
- log2 mean competition ratio ([1]; 50 µM): 0.116
- log2 mean competition ratio ([1]; 200 µM): -0.0192
- log2 mean competition ratio ([2]; 50 µM): -0.139
- log2 mean competition ratio ([2]; 200 µM): -0.0141

Target: SNRPD2 C63
- log2 mean competition ratio ([1]; 50 µM): 0.452
- log2 mean competition ratio ([1]; 200 µM): 0.207
- log2 mean competition ratio ([2]; 50 µM): 0.668
- log2 mean competition ratio ([2]; 200 µM): 0.105

Target: SNX1 C318 (UniProt Q13596)
- log2 mean competition ratio ([1]; 50 µM): -0.0737
- log2 mean competition ratio ([1]; 200 µM): -0.0854
- log2 mean competition ratio ([2]; 50 µM): -0.323
- log2 mean competition ratio ([2]; 200 µM): -0.121

Target: SPAG9 C443 (UniProt O60271)
- log2 mean competition ratio ([1]; 50 µM): -0.224
- log2 mean competition ratio ([1]; 200 µM): 0.246
- log2 mean competition ratio ([2]; 50 µM): -0.546
- log2 mean competition ratio ([2]; 200 µM): -0.00956

Target: SMURF1 C152
- log2 mean competition ratio ([1]; 50 µM): -0.225
- log2 mean competition ratio ([1]; 200 µM): 0.19
- log2 mean competition ratio ([2]; 50 µM): 0.0206
- log2 mean competition ratio ([2]; 200 µM): 0.245

Target: SMG7 C476 (UniProt Q92540)
- log2 mean competition ratio ([1]; 50 µM): -0.0445
- log2 mean competition ratio ([1]; 200 µM): -0.0487
- log2 mean competition ratio ([2]; 50 µM): -0.0415
- log2 mean competition ratio ([2]; 200 µM): 0.0421

Target: SMAD9 C61 (UniProt O15198)
- log2 mean competition ratio ([1]; 50 µM): 0.0498
- log2 mean competition ratio ([1]; 200 µM): 0.1
- log2 mean competition ratio ([2]; 50 µM): 0.19
- log2 mean competition ratio ([2]; 200 µM): 0.0649

Target: SLIRP C48 (UniProt Q9GZT3)
- log2 mean competition ratio ([1]; 50 µM): 0.328
- log2 mean competition ratio ([1]; 200 µM): -0.0399
- log2 mean competition ratio ([2]; 50 µM): 0.0845
- log2 mean competition ratio ([2]; 200 µM): -0.062

Target: SLC43A2 C392 (UniProt Q8N370)
- log2 mean competition ratio ([1]; 50 µM): -0.138
- log2 mean competition ratio ([1]; 200 µM): -0.126
- log2 mean competition ratio ([2]; 50 µM): -0.0419
- log2 mean competition ratio ([2]; 200 µM): -0.45

Target: SLC31A1 C189 (UniProt O15431)
- log2 mean competition ratio ([1]; 50 µM): -0.0705
- log2 mean competition ratio ([1]; 200 µM): 0.15
- log2 mean competition ratio ([2]; 50 µM): -0.776
- log2 mean competition ratio ([2]; 200 µM): 0.108

Target: SMG9 C380 (UniProt Q9H0W8)
- log2 mean competition ratio ([1]; 50 µM): -0.0998
- log2 mean competition ratio ([1]; 200 µM): 0.336
- log2 mean competition ratio ([2]; 50 µM): -0.0499
- log2 mean competition ratio ([2]; 200 µM): 0.242

Target: SLC19A1 C220 (UniProt P41440)
- log2 mean competition ratio ([1]; 50 µM): -0.0351
- log2 mean competition ratio ([1]; 200 µM): 0.0116
- log2 mean competition ratio ([2]; 50 µM): -0.193
- log2 mean competition ratio ([2]; 200 µM): 0.0587

Target: SNX12 C67 (UniProt Q9UMY4)
- log2 mean competition ratio ([1]; 50 µM): 0.0812
- log2 mean competition ratio ([1]; 200 µM): -0.212
- log2 mean competition ratio ([2]; 50 µM): 0.141
- log2 mean competition ratio ([2]; 200 µM): -0.352

Target: SMG5 C39 (UniProt Q9UPR3)
- log2 mean competition ratio ([1]; 50 µM): 0.082
- log2 mean competition ratio ([1]; 200 µM): -0.0514
- log2 mean competition ratio ([2]; 50 µM): -0.272
- log2 mean competition ratio ([2]; 200 µM): -0.0812
